Measured values as given in publication PMC8505418.
Results are given in words; binding and its absence hold for the method and conditions named. In cells and extracts the contact can be indirect.

The chains behind the UniProt entries cited, without tags or fusion partners.
UniProt Q13148: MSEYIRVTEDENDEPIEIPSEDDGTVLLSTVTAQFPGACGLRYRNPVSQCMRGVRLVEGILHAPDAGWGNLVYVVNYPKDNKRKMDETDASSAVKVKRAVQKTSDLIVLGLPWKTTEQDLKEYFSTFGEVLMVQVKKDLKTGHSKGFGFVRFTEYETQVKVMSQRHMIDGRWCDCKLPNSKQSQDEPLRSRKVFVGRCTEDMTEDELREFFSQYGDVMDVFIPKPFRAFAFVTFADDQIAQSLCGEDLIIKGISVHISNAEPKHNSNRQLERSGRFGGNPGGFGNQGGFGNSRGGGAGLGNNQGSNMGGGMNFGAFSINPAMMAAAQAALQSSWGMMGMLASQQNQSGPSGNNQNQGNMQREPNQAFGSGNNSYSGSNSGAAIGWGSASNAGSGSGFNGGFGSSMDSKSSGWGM

Experiments:
Experiment in all cases: co-IP; GFP-Trap beads on lysates of U2OS cells transfected with EGFP-FLAG-Ku70 wild type or Ser77/78 mutants, UV-irradiated (200 J/m^2) 48 h after transfection; lysis buffer 10 mM Tris-HCl pH 7.5, 100 mM NaCl, 0.5 mM EDTA, 0.5% NP-40; 60 min at 4 °C; western blots for endogenous partners
[1] = biological target: EGFP-Ku70-SS77/78EE (human) (UniProt P12956)
[2] = biological target: EGFP-Ku70-SS77/78AA (human) (UniProt P12956)
[3] = biological target: EGFP-Ku70-SS77/78DD (human) (UniProt P12956)
[4] = biological target: EGFP-Ku70-WT (pEGFP-C1-FLAG-Ku70, 70 kDa subunit of Ku antigen, wild type) (human) (UniProt P12956)

Measured: binding

TDP43 (from UniProt Q13148 1-414)
no binding: [1] | [2] | [3]

VCP (from UniProt P55072 1-806)
no binding: all assays above
